In paper PMC4745783, “The HGF inhibitory peptide HGP-1 displays promising in vitro and in vivo efficacy for targeted cancer therapy” (Oncotarget, 2015):
Results are given in words; binding and its absence hold for the method and conditions named. Some results given as binding are weak or reduced against the parent protein; the word gives no strength.

Amino acid sequences for entries named in this document (tags omitted). Residues count along the entry.
UniProt P14210, residues 32-728: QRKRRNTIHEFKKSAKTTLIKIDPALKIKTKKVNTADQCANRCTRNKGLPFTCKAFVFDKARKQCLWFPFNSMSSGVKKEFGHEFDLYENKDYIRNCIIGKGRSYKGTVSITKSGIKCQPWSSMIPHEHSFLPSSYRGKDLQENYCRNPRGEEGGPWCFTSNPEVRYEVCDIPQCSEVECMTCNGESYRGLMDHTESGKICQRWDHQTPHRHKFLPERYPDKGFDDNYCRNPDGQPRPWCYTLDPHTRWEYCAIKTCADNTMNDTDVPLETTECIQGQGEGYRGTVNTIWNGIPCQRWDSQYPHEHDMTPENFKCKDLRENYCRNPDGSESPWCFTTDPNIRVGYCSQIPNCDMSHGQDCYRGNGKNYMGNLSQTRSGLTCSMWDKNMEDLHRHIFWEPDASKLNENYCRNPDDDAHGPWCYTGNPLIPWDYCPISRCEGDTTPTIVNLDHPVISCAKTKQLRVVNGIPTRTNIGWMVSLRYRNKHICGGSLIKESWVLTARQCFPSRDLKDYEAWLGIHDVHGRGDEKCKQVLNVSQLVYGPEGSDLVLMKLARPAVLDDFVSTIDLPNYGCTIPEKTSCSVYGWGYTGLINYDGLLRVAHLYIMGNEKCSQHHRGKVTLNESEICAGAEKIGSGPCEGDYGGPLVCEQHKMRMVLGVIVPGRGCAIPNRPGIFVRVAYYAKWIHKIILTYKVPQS

Experiments:
[1] = target: Biotinylated recombinant human full length HGF (human) (UniProt P14210); test: flow cytometry on cells; sorting of a random X15 library displayed on E. coli: one cycle of MACS with 42.5 nM biotinylated HGF, then 13 cycles of FACS with biotinylated HGF 20 nM to 5 nM, 4°C 45 minutes, streptavidin-phycoerythrin; 10% human serum in the last cycles; sorted clones sequenced; only the target purified
[2] = target: Biotinylated recombinant human full length HGF (human) (UniProt P14210); test: flow cytometry on cells; 10^7 bacteria of single clones incubated with biotinylated HGF as in sorting; regular washing ('original') or stringent washing ('washed': 3 times 10 minutes in PBS pH 7.4 at 4°C); PE-A fluorescence; only the target purified
[3] = target: Biotinylated recombinant human full length HGF (human) (UniProt P14210); test: flow cytometry on cells; competition: 10^7 bacteria incubated with 7 nM HGF alone or with the same molarity of VEGF-165, EGF, bFGF or BSA; the pair that is blocked; only the target purified

| Binder | binding [1] | binding [2] | binding [3] |
| --- | --- | --- | --- |
| ALQQAWGWWDCYGWR [HGF binding peptide, clone 15, displayed on bacteria] | binds |  |  |
| TLYEVDLREWCAGIVG [HGF binding peptide-2 displayed on the surface of bacteria] | binds | binds |  |
| RSSMWDCYYFDCCNW [HGF binding peptide, clone 14, displayed on bacteria] | binds |  |  |
| MEVERRWPWWHANYW [HGF binding peptide, clone 6, displayed on bacteria] | binds |  |  |
| MYNVRLNDWYWCGWD [HGF binding peptide, clone 16, displayed on bacteria] | binds |  |  |
| YWPGCQEWGNKWWGG [HGF binding peptide, clone 9, displayed on bacteria] | binds |  |  |
| RANWFCIEDSVYCGK [HGF binding peptide, clone 4, displayed on bacteria] | binds |  |  |
| HRGLKWEIVPWSGCG [HGF binding peptide-1 displayed on the surface of bacteria] | binds | binds | binds |
| YWYGWGSGWSGCDHA [HGF binding peptide, clone 18, displayed on bacteria] | binds |  |  |
| AYMMRDLWEYNWTSG [HGF binding peptide, clone 7, displayed on bacteria] | binds |  |  |
| TYFTWWELSPGCEEH [HGF binding peptide-3 displayed on the surface of bacteria] | binds | binds |  |
| SPWWSVYETQSCAVR [HGF binding peptide, clone 17, displayed on bacteria] | binds |  |  |

More lines, now with the values ahead:

| binding [1] | binding [2] | binding [3] | Binder |
| --- | --- | --- | --- |
| binds |  |  | YRWGMGGYEYWCNRG [HGF binding peptide, clone 10, displayed on bacteria] |
| binds |  |  | SARKLGWCPYWSSDC [HGF binding peptide, clone 5, displayed on bacteria] |
| binds |  |  | QRCGMVRFNDWQHPM [HGF binding peptide, clone 11, displayed on bacteria] |
| binds |  |  | KGYGRYWWDCGDNFW [HGF binding peptide, clone 8, displayed on bacteria] |
| binds |  |  | GTARLLWRPVVTYDC [HGF binding peptide, clone 12, displayed on bacteria] |
| binds |  |  | MGGGSWLYVGDPDCW [HGF binding peptide, clone 13, displayed on bacteria] |
